# Laboratory results from PubChem BioAssay AID248 (DTP/NCI, 2004).
# The list does not hold the whole screen: it is rich in T/C values a quarter to a half above the control, in often repeated tests (any T/C) and in doses without a T/C. Other doses and runs of a compound stand elsewhere. T/C gives the treated animals as a percentage of the vehicle group. Some doses have a count of surviving animals in place of a T/C: the source files T/C as zero there, which appears to mark a toxic dose or a test without result, not a measured value. Some doses without a T/C left all or most animals alive at the check, yet need not have been tolerated: the source hardly ever lists a survival T/C far under the control, and the zero likely stands for such cases as well. Survivors were counted at the toxicity check, usually on the fifth day, unless a day is given; later deaths do not show. Schedule codes are those of the source, read here as Q, the interval in days (D) or hours (H), X, the number of doses. Some doses were run more than once; their values stand side by side, smallest first. Where survival is the endpoint, this PubChem deposit counts one and a half times the control or more as active, and values a quarter to a half above the control carry no call in these data; other NCI protocols may use other cut-offs. Some T/C values carry the count of animals alive at the toxicity check (mostly the fifth day); without a count, all were alive then.
# System: L1210 leukemia ip in BDF1 mice, survival T/C
# Experiment: NCI In Vivo Anticancer Drug Screen. Data for tumor model L1210 Leukemia (intraperitoneal) in B6D2F1 (BDF1) mice
# Settings: T/C endpoint: mean survival time, higher T/C = longer survival
# [1] = dose: 100.0 mg/kg/injection, schedule: Q01DX009 (ip), vehicle: Klucel (hydroxypropylcellulose) (HPC)
# [2] = dose: 200.0 mg/kg/injection, schedule: Q01DX009 (ip), vehicle: saline with Tween-80
# [3] = dose: 200.0 mg/kg/injection, schedule: Q04DX003 (ip), vehicle: saline
# [4] = dose: 400.0 mg/kg/injection, schedule: Q04DX003 (ip), vehicle: saline
# [5] = dose: 25.0 mg/kg/injection, schedule: Q01DX009 (ip), vehicle: saline with Tween-80
# [6] = dose: 50.0 mg/kg/injection, schedule: Q01DX009 (ip), vehicle: saline with Tween-80
# [7] = dose: 200.0 mg/kg/injection, schedule: Q04DX003 (ip), vehicle: Klucel (hydroxypropylcellulose) (HPC)
# [8] = dose: 400.0 mg/kg/injection, schedule: Q04DX003 (ip), vehicle: Klucel (hydroxypropylcellulose) (HPC)
# [9] = dose: 100.0 mg/kg/injection, schedule: Q01DX001 (ip), vehicle: carboxymethylcellulose (CMC)
# [10] = dose: 200.0 mg/kg/injection, schedule: Q01DX001 (ip), vehicle: carboxymethylcellulose (CMC)
# [11] = dose: 400.0 mg/kg/injection, schedule: Q01DX001 (ip), vehicle: carboxymethylcellulose (CMC)
smiles,measurement,setting,value
NC(N)=NC(N)=Nc1ccc2c(Cl)c(Cl)ccc2c1,survivor count,"dose: 100.0 mg/kg/injection, schedule: Q01DX009 (ip), vehicle: saline sonified",0 of 6
same,survivor count,"dose: 200.0 mg/kg/injection, schedule: Q01DX009 (ip), vehicle: saline sonified",0 of 6
same,survivor count,"dose: 200.0 mg/kg/injection, schedule: Q04DX003 (ip), vehicle: saline sonified",3 of 6
same,survivor count,"dose: 400.0 mg/kg/injection, schedule: Q01DX009 (ip), vehicle: saline sonified",0 of 6
same,survivor count,"dose: 400.0 mg/kg/injection, schedule: Q04DX003 (ip), vehicle: saline sonified",0 of 6
NC(CSS(=O)(=O)O)=NCc1ccoc1,survivor count,"dose: 100.0 mg/kg/injection, schedule: Q04DX002 (ip), vehicle: saline with Tween-80",3 of 3
same,survivor count,"dose: 200.0 mg/kg/injection, schedule: Q04DX002 (ip), vehicle: saline with Tween-80",0 of 3
Cn1cnc([N+](=O)[O-])c1Sc1ncnc2c1ncn2C1OC(CO)C(O)C1O (stereo unspecified),T/C,"dose: 70.0 mg/kg/injection, schedule: Q01DX009 (ip), vehicle: saline",132 % of control
same,T/C,"dose: 135.0 mg/kg/injection, schedule: Q01DX009 (ip), vehicle: saline",146 % of control
same,T/C,"dose: 150.0 mg/kg/injection, schedule: Q04DX003 (ip), vehicle: Klucel (hydroxypropylcellulose) (HPC)",128 % of control
same,T/C,"dose: 268.0 mg/kg/injection, schedule: Q01DX009 (ip), vehicle: other",147 % of control
same,T/C,"dose: 400.0 mg/kg/injection, schedule: Q01DX009 (ip), vehicle: other",141 % of control
same,T/C,"dose: 400.0 mg/kg/injection, schedule: Q01DX009 (ip), vehicle: saline",125 % of control
same,survivor count,"dose: 600.0 mg/kg/injection, schedule: Q01DX009 (ip), vehicle: other",5 of 5
same,T/C,"dose: 600.0 mg/kg/injection, schedule: Q04DX003 (ip), vehicle: Klucel (hydroxypropylcellulose) (HPC)",139 % of control
CN(C)N=Nc1ccccc1Cl,T/C,"dose: 50.0 mg/kg/injection, schedule: Q01DX009 (ip), vehicle: Klucel (hydroxypropylcellulose) (HPC)",125 % of control
same,T/C,[1],139 % of control
same,survivor count,"dose: 200.0 mg/kg/injection, schedule: Q01DX009 (ip), vehicle: Klucel (hydroxypropylcellulose) (HPC)",0 of 6 and 5 of 6
same,survivor count,[2],6 of 6
same,survivor count,"dose: 400.0 mg/kg/injection, schedule: Q01DX009 (ip), vehicle: Klucel (hydroxypropylcellulose) (HPC)",3 of 6
NOCc1nnc(Nc2ccccc2)s1,survivor count,"dose: 400.0 mg/kg/injection, schedule: Q01DX009 (ip), vehicle: saline with Tween-80",5 of 6
Cc1ccc(C(=O)N/N=C/C(CC(O)C(O)CO)=N/NC(=O)c2ccc(C)cc2)cc1 (stereo unspecified),survivor count,"dose: 400.0 mg/kg/injection, schedule: Q04DX003 (ip), vehicle: alcohol",5 of 6
CC(=O)Oc1ccc2ccccc2c1/C=C/c1ccncc1,survivor count,"dose: 100.0 mg/kg/injection, schedule: Q01DX009 (ip), vehicle: saline",3 of 6
same,survivor count,[3],5 of 6
same,survivor count,[4],5 of 6
O=S(=O)(O)c1ccccc1.O=S(=O)(O)c1ccccc1.[NH-]C1CCCCC1[NH-].[Pt+2],T/C,"dose: 1.0 mg/kg/injection, schedule: Q04DX003 (ip), vehicle: dextrose",129 % of control
O=C(CCc1ccccc1)NC(=S)Nc1cccc([N+](=O)[O-])c1,T/C,[5],"94, 101, 107 % of control"
same,survivor count,[5],3 of 3
same,T/C,[6],"88, 92, 93, 97, 108 % of control"
same,survivor count,[6],3 of 3
same,T/C,"dose: 100.0 mg/kg/injection, schedule: Q01DX009 (ip), vehicle: saline with Tween-80","89, 92, 93, 94, 95, 107 % of control"
same,T/C,[2],86 [5 of 6 alive] and 101 % of control [4 of 6 alive]
same,survivor count,[2],1 of 3 and 3 of 3
same,survivor count,"dose: 400.0 mg/kg/injection, schedule: Q01DX001 (ip), vehicle: saline with Tween-80",0 of 6
same,survivor count,"dose: 400.0 mg/kg/injection, schedule: Q04DX002 (ip), vehicle: alcohol",3 of 3
CCOC(=O)/C(C#N)=C\c1cccs1,survivor count,[7],0 of 3
same,survivor count,[8],0 of 3
CC[Si](CC)(CC)c1ccc(CCN2CC2)s1,survivor count,[9],0 of 4
same,survivor count,[10],0 of 4
same,survivor count,[11],0 of 4
COC(=O)C1C2CC3c4[nH]c5cc(OC)ccc5c4CCN3CC2CC(OC(=O)c2cc(OC)c(OC)c(OC)c2)C1OC (stereo unspecified),survivor count,[1],0 of 6
same,survivor count,[3],0 of 4
same,survivor count,[4],0 of 4
C/C(CCCCl)=N/N=C(N)N,survivor count,"dose: 115.0 mg/kg/injection, schedule: Q04DX003 (ip), vehicle: acetone",2 of 6
same,survivor count,"dose: 170.0 mg/kg/injection, schedule: Q01DX009 (ip), vehicle: saline with Tween-80",0 of 6
same,survivor count,"dose: 170.0 mg/kg/injection, schedule: Q04DX003 (ip), vehicle: acetone",1 of 6
same,survivor count,"dose: 255.0 mg/kg/injection, schedule: Q01DX009 (ip), vehicle: saline with Tween-80",0 of 6
O=NN(CCCl)C(=O)NC1CSCSC1,T/C,"dose: 3.5 mg/kg/injection, schedule: Q01DX001 (ip), vehicle: other",142 % of control
same,survivor count,"dose: 62.0 mg/kg/injection, schedule: Q01DX001 (ip), vehicle: other",9 of 10
same,survivor count,"dose: 93.0 mg/kg/injection, schedule: Q01DX001 (ip), vehicle: other",3 of 10
same,survivor count,"dose: 125.0 mg/kg/injection, schedule: Q01DX001 (ip), vehicle: other",4 of 10
same,survivor count,"dose: 187.0 mg/kg/injection, schedule: Q01DX001 (ip), vehicle: other",0 of 10
same,survivor count,"dose: 250.0 mg/kg/injection, schedule: Q01DX001 (ip), vehicle: other",0 of 10
same,survivor count,"dose: 375.0 mg/kg/injection, schedule: Q01DX001 (ip), vehicle: other",0 of 10
same,survivor count,"dose: 500.0 mg/kg/injection, schedule: Q01DX001 (ip), vehicle: other",0 of 10
COc1ccc2c(c1)/C(=C/CCN(C)C)c1ccccc1S2,survivor count,"dose: 25.0 mg/kg/injection, schedule: Q01DX009 (ip), vehicle: carboxymethylcellulose (CMC)",1 of 6
same,survivor count,"dose: 50.0 mg/kg/injection, schedule: Q04DX003 (ip), vehicle: other",1 of 6
same,survivor count,"dose: 100.0 mg/kg/injection, schedule: Q01DX001 (ip), vehicle: other",0 of 6
same,survivor count,"dose: 200.0 mg/kg/injection, schedule: Q01DX001 (ip), vehicle: other",0 of 6
same,survivor count,"dose: 400.0 mg/kg/injection, schedule: Q01DX001 (ip), vehicle: other",0 of 6
CS(=O)(=O)OCCCCCOS(C)(=O)=O,T/C,"dose: 25.0 mg/kg/injection, schedule: Q01DX015 (ip), vehicle: saline",128 % of control
same,survivor count,"dose: 80.0 mg/kg/injection, schedule: Q01DX001 (ip), vehicle: carboxymethylcellulose (CMC)",0 of 4
same,survivor count,[9],1 of 4
same,survivor count,"dose: 100.0 mg/kg/injection, schedule: Q01DX015 (ip), vehicle: saline",0 of 6
same,survivor count,[10],0 of 4
same,survivor count,[11],0 of 4
CC[N+](C)(C)CCCOC(=O)C1C2CC3OC(=O)C1C3C2 (stereo unspecified),survivor count,[4],0 of 3
N=c1ccccn1CC(O)COc1cccc([N+](=O)[O-])c1 (stereo unspecified),survivor count,"dose: 400.0 mg/kg/injection, schedule: Q04DX002 (ip), vehicle: other",0 of 3
COc1ccc2nc3ccccc3c(NCCCN(C)C)c2c1,survivor count,"dose: 80.0 mg/kg/injection, schedule: Q01DX001 (ip), vehicle: saline",3 of 4
N#Cc1ccc(S(=O)(=O)Cl)cc1,survivor count,[7],4 of 6
same,survivor count,[8],0 of 6
